Values from PubChem BioAssay AID743121 (NCATS, 2013).
The whole screen tested about 26,000 reagents; this is an unselected part. In the full data, 167 (0.63%) are marked active. 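Calls are per gene from RSA p-values that are not deposited; an individual active-marked siRNA can sensitise only weakly.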 Entries without a mark were called inactive. The numbers tell different reagents against one gene apart. Further read-outs or replicates are left out here.

- Assay: 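Partners whose loss is lethal together with topoisomerase I blockade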 (primary screen)
- Cells: MDA-MB-231 cells, a human breast cancer line
- Reagent: single siRNA against human genes, 20 nM siRNA (0.8 pmol per well)
- Duration: 120 h (drug added 48 h after transfection, read 72 h later)
- Treatment: camptothecin 20 nM (about EC30) for 72 h; vehicle 0.1% DMSO in parallel plates
- Detection: 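CellTiter-Glo ATP signal, scaled to control siRNA as percent viability; sensitisation given as log2 of untreated divided by camptothecin-treated viability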
- Reading the numbers: log2 vehicle/camptothecin viability: higher = stronger sensitisation to camptothecin
- Call rule: 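Active genes have an RSA gene-level p-value below 0.001, computed from the ratios of their separate siRNAs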

{"gene symbol":"FLG (filaggrin)","siRNA no.":1,"log2 vehicle/camptothecin viability":-0.0819}
{"gene symbol":"FLG (filaggrin)","siRNA no.":2,"log2 vehicle/camptothecin viability":-0.0581}
{"gene symbol":"FLG (filaggrin)","siRNA no.":3,"log2 vehicle/camptothecin viability":-0.00459}
{"gene symbol":"FLG (filaggrin)","siRNA no.":4,"log2 vehicle/camptothecin viability":-0.388}
{"gene symbol":"ETS2 (ETS proto-oncogene 2, transcription factor)","siRNA no.":1,"log2 vehicle/camptothecin viability":-0.38}
{"gene symbol":"ETS2 (ETS proto-oncogene 2, transcription factor)","siRNA no.":2,"log2 vehicle/camptothecin viability":-0.559}
{"gene symbol":"ETS2 (ETS proto-oncogene 2, transcription factor)","siRNA no.":3,"log2 vehicle/camptothecin viability":-0.0791}
{"gene symbol":"CCN1 (cellular communication network factor 1)","siRNA no.":1,"log2 vehicle/camptothecin viability":-0.164}
{"gene symbol":"CCN1 (cellular communication network factor 1)","siRNA no.":2,"log2 vehicle/camptothecin viability":0.327}
{"gene symbol":"CCN1 (cellular communication network factor 1)","siRNA no.":3,"log2 vehicle/camptothecin viability":-0.166}
{"gene symbol":"CCN1 (cellular communication network factor 1)","siRNA no.":4,"log2 vehicle/camptothecin viability":-0.213}
{"gene symbol":"CD1E (CD1e molecule)","siRNA no.":1,"log2 vehicle/camptothecin viability":0.369}
{"gene symbol":"CD1E (CD1e molecule)","siRNA no.":2,"log2 vehicle/camptothecin viability":-0.138}
{"gene symbol":"CD1E (CD1e molecule)","siRNA no.":3,"log2 vehicle/camptothecin viability":0.105}
{"gene symbol":"CD1E (CD1e molecule)","siRNA no.":4,"log2 vehicle/camptothecin viability":-0.0173}

An excerpt taken from the entries so far, for reference:
{"gene symbol":"CCN1 (cellular communication network factor 1)","siRNA no.":3,"log2 vehicle/camptothecin viability":-0.166}
{"gene symbol":"CCN1 (cellular communication network factor 1)","siRNA no.":4,"log2 vehicle/camptothecin viability":-0.213}
